From the supplement of paper PMC10849652
Some of the results follow.

Chains of the proteins cited; added tags and fusions are not shown. Lines headed by an entry give the natural chain unless they say otherwise; changes in a name come on top.
UniProt Q8IY63: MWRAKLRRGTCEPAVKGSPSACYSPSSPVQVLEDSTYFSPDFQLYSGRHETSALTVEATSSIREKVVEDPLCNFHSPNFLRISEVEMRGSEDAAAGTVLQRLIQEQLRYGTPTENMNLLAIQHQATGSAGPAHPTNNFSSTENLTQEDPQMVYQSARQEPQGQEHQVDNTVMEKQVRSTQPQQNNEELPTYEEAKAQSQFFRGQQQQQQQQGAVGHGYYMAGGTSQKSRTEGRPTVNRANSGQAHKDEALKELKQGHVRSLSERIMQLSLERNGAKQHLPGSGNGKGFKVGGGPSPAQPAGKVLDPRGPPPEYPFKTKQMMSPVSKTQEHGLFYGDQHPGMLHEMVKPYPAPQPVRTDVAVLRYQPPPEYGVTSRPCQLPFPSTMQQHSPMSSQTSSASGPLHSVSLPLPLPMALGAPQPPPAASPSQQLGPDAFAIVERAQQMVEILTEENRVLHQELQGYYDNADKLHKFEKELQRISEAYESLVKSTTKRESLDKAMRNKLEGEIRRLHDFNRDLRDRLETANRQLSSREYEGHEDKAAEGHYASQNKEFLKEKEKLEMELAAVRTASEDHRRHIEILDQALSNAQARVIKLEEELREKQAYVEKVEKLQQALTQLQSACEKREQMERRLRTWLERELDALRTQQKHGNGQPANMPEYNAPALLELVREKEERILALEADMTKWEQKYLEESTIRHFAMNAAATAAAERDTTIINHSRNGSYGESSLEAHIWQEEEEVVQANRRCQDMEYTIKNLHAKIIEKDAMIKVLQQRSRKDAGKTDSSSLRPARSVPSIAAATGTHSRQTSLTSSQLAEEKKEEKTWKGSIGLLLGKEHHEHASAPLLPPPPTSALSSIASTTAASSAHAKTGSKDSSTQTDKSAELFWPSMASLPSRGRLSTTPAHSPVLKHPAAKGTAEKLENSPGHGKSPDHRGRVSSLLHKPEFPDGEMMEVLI
UniProt Q01433: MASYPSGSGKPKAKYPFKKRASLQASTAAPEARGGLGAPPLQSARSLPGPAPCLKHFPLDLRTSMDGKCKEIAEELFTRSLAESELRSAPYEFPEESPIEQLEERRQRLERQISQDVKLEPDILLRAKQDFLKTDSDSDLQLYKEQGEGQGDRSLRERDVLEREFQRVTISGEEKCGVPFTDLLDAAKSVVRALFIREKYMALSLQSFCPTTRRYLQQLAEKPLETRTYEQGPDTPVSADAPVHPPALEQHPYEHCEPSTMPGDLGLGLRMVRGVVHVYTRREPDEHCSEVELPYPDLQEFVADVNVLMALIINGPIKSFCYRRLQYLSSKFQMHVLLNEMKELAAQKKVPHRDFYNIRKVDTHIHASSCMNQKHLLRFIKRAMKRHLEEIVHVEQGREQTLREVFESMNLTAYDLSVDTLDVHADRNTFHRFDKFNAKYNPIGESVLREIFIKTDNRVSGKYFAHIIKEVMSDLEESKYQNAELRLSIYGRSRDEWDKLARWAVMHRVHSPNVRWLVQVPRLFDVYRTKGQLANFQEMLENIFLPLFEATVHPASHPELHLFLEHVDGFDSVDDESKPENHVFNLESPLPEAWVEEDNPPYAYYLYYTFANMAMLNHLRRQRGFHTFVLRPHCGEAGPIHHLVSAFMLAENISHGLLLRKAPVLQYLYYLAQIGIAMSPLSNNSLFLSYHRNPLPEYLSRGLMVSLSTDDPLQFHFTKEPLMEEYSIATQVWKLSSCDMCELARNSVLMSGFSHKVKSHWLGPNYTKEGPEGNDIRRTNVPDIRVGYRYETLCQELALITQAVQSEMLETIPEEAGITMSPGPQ
UniProt O75843: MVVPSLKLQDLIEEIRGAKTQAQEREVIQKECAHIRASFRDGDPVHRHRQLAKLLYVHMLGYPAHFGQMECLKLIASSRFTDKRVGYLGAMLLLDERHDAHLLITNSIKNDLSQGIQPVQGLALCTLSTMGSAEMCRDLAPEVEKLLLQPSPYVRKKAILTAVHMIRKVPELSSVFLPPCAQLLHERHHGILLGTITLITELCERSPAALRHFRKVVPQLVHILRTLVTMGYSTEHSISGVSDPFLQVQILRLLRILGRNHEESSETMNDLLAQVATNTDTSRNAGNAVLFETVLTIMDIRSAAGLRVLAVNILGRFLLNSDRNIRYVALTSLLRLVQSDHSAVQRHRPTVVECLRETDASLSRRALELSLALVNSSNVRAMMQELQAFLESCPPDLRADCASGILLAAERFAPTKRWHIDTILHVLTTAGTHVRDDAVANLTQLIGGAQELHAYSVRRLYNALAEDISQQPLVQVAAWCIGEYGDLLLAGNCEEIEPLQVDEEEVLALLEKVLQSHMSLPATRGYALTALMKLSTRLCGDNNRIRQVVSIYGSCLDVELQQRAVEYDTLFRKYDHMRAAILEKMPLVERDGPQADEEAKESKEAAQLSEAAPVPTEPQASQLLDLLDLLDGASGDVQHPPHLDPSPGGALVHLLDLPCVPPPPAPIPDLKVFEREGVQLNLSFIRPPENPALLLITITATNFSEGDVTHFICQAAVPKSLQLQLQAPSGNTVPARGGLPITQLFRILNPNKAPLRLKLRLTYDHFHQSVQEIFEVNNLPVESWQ
UniProt Q92625: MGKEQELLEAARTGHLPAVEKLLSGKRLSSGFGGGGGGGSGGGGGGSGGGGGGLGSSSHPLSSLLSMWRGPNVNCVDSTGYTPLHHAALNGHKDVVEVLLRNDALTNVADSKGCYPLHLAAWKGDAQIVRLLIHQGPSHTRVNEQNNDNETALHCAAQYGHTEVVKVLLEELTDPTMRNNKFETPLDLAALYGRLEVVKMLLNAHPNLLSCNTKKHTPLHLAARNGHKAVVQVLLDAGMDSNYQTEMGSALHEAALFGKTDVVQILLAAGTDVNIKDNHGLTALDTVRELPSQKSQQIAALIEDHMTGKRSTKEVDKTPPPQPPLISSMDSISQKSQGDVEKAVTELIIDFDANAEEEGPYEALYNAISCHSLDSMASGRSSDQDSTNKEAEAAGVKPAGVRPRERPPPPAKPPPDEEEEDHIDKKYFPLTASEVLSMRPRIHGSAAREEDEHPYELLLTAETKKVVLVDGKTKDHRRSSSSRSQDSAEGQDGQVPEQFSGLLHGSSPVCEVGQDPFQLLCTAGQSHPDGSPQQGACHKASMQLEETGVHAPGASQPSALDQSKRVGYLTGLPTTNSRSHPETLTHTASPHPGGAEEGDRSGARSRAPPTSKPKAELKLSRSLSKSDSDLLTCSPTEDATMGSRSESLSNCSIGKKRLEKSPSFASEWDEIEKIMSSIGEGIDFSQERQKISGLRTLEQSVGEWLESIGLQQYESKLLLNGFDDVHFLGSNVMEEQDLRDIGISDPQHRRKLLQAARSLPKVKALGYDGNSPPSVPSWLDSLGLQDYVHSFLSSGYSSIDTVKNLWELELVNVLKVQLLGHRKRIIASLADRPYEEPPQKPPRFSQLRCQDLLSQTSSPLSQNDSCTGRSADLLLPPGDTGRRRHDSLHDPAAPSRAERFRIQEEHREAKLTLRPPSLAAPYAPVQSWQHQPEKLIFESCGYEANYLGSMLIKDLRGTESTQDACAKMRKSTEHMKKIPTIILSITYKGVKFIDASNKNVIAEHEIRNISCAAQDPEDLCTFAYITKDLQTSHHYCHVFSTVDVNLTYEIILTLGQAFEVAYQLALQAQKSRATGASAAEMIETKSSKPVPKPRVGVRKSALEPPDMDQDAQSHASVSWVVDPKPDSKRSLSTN
UniProt Q96Q83: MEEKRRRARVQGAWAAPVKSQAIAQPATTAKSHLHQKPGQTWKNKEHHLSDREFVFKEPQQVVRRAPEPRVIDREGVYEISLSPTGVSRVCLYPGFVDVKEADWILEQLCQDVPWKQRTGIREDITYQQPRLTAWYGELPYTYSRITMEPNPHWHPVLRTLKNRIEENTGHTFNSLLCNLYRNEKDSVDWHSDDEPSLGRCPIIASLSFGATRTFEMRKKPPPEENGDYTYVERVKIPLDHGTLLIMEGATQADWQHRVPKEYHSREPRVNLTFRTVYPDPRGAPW
UniProt Q3SY69: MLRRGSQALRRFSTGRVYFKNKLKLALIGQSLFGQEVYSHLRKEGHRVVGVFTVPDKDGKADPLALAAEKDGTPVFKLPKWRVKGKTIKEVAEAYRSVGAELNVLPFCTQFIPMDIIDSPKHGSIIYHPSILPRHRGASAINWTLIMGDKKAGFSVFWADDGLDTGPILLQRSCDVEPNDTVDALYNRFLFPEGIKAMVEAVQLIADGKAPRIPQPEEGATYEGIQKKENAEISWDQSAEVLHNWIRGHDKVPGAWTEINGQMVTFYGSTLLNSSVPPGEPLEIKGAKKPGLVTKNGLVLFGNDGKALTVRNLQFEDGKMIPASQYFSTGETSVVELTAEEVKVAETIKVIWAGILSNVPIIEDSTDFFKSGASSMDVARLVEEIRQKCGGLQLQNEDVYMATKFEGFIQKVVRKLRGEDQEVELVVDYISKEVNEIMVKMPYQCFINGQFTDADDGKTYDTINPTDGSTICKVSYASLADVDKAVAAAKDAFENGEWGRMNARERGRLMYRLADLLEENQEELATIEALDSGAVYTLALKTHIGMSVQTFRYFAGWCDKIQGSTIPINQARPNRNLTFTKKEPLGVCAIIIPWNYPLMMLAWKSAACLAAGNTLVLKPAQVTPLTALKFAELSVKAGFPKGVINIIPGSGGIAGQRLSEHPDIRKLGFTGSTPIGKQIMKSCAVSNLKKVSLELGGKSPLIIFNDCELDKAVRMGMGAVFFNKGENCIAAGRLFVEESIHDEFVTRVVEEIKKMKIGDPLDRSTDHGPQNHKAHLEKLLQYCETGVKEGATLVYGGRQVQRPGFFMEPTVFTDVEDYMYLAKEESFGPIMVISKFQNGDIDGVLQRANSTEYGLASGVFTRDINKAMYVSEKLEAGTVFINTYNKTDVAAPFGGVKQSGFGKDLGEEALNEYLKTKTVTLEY
UniProt Q6AI12: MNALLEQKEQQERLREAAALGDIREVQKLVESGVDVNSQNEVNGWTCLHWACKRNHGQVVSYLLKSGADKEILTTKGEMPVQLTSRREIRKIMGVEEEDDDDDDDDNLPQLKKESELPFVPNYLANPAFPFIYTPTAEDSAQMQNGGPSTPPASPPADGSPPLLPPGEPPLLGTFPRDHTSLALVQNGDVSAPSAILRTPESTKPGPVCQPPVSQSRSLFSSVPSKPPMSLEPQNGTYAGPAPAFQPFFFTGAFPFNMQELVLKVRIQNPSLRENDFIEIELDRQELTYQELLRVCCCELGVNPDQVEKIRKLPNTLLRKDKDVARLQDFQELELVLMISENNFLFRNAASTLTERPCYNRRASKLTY
UniProt Q6NS38: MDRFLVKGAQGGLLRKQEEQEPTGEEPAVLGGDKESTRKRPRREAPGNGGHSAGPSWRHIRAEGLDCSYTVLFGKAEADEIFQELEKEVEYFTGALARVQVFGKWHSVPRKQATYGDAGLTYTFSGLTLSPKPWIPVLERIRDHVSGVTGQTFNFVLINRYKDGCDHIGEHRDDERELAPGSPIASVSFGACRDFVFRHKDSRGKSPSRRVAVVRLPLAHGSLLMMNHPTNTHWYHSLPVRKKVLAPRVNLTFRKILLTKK
UniProt O15084: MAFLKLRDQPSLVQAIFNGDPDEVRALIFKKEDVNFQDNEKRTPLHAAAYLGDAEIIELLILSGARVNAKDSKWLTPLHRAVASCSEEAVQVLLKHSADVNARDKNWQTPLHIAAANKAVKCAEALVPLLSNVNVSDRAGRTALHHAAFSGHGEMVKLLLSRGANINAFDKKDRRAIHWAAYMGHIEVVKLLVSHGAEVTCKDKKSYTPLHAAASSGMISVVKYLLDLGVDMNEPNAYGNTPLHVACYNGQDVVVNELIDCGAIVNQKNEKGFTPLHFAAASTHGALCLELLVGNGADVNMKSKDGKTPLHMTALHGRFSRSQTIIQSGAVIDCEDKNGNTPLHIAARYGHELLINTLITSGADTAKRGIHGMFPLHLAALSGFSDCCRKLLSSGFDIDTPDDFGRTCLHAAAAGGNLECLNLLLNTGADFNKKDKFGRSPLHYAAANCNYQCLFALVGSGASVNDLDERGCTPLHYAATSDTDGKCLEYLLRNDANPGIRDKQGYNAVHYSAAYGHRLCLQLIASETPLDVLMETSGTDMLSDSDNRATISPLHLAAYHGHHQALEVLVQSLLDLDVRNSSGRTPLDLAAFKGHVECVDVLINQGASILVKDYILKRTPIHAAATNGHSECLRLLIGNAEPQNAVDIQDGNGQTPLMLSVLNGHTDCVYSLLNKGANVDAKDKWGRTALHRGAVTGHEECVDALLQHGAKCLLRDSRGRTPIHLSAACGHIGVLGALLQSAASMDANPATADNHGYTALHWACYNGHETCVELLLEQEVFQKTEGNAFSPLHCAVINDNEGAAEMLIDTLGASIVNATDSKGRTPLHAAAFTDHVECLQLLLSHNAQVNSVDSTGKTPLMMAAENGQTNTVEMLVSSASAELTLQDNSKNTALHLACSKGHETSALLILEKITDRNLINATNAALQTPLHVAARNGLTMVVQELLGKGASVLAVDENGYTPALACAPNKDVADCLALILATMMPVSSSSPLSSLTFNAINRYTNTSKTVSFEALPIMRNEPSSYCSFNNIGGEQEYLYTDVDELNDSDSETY

Assays:
Assay in all cases: log2 fold change, soluble protein after heating vs DMSO (PISA); higher = thermal stabilisation; K562 lysate, 10 uM; active = over 0.2 and 3.5 SD of the protein, either way, in both replicates (recomputed)
[1] = compound: C#Cc1cccc(Nc2ncnc3cc(OCCOC)c(OCCOC)cc23)c1 [erlotinib]
Outline: (§1)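 K562 pellets were dounce-homogenised in PBS pH 7.4 containing 1 mM MgCl2, and the crude extract, at 1 mg/mL protein, was exposed to 10 μM compound for 30 min. Aliquots were heated for 3 min across 48°C-58°C, pooled, brought to 0.5% NP-40 at 4°C and spun at 21,000xg for 90 min, with the supernatant taken as soluble protein. TMTpro 16plex LC-MS/MS with equalised channel sums quantified that protein. Values are log-two fold changes in thermal stability relative to solvent controls, taken from duplicates.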

[2] = compound: C/C(=N\NC(=O)C1=CC(=CC=C1)S(=O)(=O)N2CCOCC2)/C3=C(C=CC(=C3)Cl)O
Outline: as §1

[3] = compound: C1=CC(=CC=C1C2=NC3=C(N2)C=C(C=C3)C(=O)N)OC4=CC=C(C=C4)Cl
Outline: as §1

[4] = compound: C1=CC2=C(C=CC(=C2)/C=C\3/C(=O)NC(=NCC4=CC=CS4)S3)N=C1
Outline: as §1

[5] = compound: C1=CC2=NC=CN=C2C=C1/C=C/3\C(=O)NC(=O)S3
Outline: as §1

[6] = compound: C1=CC=C(C=C1)C2=NC(=C(N2)C3=CC=NC=C3)C4=CC(=C(C=C4)Cl)O
Outline: as §1

[7] = compound: C1=CC=C2C(=C1)C3=NNC4=CC=CC(=C43)C2=O
Outline: as §1

[8] = compound: C1CCN(C1)C(=O)NC2=CC=CC(=C2)NC3=NC=C(C(=N3)NCCC4=CN=CN4)Br
Outline: as §1

[9] = compound: C1CN(CCC1(CC2=CC=C(C=C2)Cl)N)C3=NC=NC4=C3C=CN4
Outline: as §1

[10] = compound: C1COCCN1CCN2C3=CC=CC=C3N=C2NC(=O)C4=CC(=CC=C4)[N+](=O)[O-] [IRAK-1-4 Inhibitor I]
Outline: as §1

Measured: log2 fold change

AMOTL1 (UniProt Q8IY63)
inactive: [1] -0.032 | [2] -0.275 | [3] 0.001 | [4] -0.267 | [5] 0.034 | [6] 0.056 | [7] 0.047 | [8] 0.039 | [9] 0.054 | [10] -0.002

AMZ2 (UniProt Q86W34)
inactive: [1] -0.019 | [2] 0.044 | [3] 0.012 | [4] -0.009 | [5] 0.127 | [6] -0.012 | [7] 0.015 | [8] 0.061 | [9] -0.016 | [10] 0.023

ALS2 (UniProt Q96Q42)
inactive: [1] 0.013 | [2] 0.063 | [3] -0.104 | [4] -0.021 | [5] 0.078 | [6] -0.033 | [7] 0.072 | [8] 0.024 | [9] 0.052 | [10] 0.009

ALG2 (UniProt Q9H553)
inactive: [1] 0 | [2] 0.08 | [3] -0.01 | [4] -0.076 | [5] 0 | [6] 0.026 | [7] -0.062 | [8] 0 | [9] 0.052 | [10] -0.039

AMPD2 (UniProt Q01433)
inactive: [1] -0.036 | [2] -0.006 | [3] 0.058 | [4] 0.009 | [5] -0.024 | [6] -0.016 | [7] 0.006 | [8] -0.026 | [9] 0.005 | [10] 0.004

ANAPC10 (UniProt Q9UM13)
inactive: [1] -0.034 | [2] -0.037 | [3] 0.042 | [4] 0.031 | [5] -0.025 | [6] 0.03 | [7] -0.016 | [8] -0.007 | [9] -0.007 | [10] -0.013

AP1G2 (UniProt O75843)
inactive: [1] 0.052 | [2] 0.016 | [3] 0.068 | [4] -0.116 | [5] -0.07 | [6] 0 | [7] 0.001 | [8] -0.003 | [9] 0.034 | [10] -0.007

ALAD (UniProt P13716)
inactive: [1] -0.004 | [2] -0.072 | [3] 0.046 | [4] -0.07 | [5] 0.005 | [6] 0.01 | [7] 0.024 | [8] -0.027 | [9] 0.055 | [10] 0.015

Retrieved one by one from above (2):
ALG2 (UniProt Q9H553)
inactive: [1] 0 | [2] 0.08 | [3] -0.01 | [4] -0.076 | [5] 0 | [6] 0.026 | [7] -0.062 | [8] 0 | [9] 0.052 | [10] -0.039

AMOTL1 (UniProt Q8IY63)
inactive: [1] -0.032 | [2] -0.275 | [3] 0.001 | [4] -0.267 | [5] 0.034 | [6] 0.056 | [7] 0.047 | [8] 0.039 | [9] 0.054 | [10] -0.002

(cont.)

ANKS1A (UniProt Q92625)
inactive: [1] 0.049 | [2] 0.428 | [3] -0.041 | [4] -0.017 | [5] -0.037 | [6] 0.01 | [7] -0.014 | [8] 0.026 | [9] 0.009 | [10] 0.006

AMMECR1 (UniProt Q9Y4X0)
inactive: [1] 0.007 | [2] 0.003 | [3] 0.019 | [4] -0.045 | [5] 0.004 | [6] -0.009 | [7] -0.001 | [8] 0.009 | [9] 0.019 | [10] 0.002

ALDH16A1 (UniProt Q8IZ83)
inactive: [1] -0.038 | [2] 0.007 | [3] 0.014 | [4] -0.005 | [5] 0.01 | [6] -0.04 | [7] 0.014 | [8] 0.03 | [9] -0.001 | [10] -0.004

ALKBH3 (UniProt Q96Q83)
inactive: [1] -0.06 | [2] -0.121 | [3] 0.021 | [4] -0.042 | [5] -0.02 | [6] 0.009 | [7] -0.009 | [8] 0.141 | [9] -0.034 | [10] -0.006

ANGPTL4 (UniProt M0R3A2)
inactive: [1] 0.283 | [2] -0.157 | [3] -0.109 | [4] 0.108 | [5] 0.207 | [6] 0.262 | [7] -0.152 | [8] 0.091 | [9] -0.067 | [10] 0.122

ANKRD13D isoform 3 (UniProt Q6ZTN6)
inactive: [1] -0.045 | [2] 0.284 | [3] -0.043 | [4] 0.325 | [5] 0.124 | [6] 0.123 | [7] -0.158 | [8] -0.035 | [9] 0.144 | [10] -0.098

AP4M1 (UniProt O00189)
inactive: [1] -0.03 | [2] 0.066 | [3] -0.032 | [4] -0.013 | [5] -0.008 | [6] -0.064 | [7] -0.082 | [8] 0.038 | [9] -0.003 | [10] 0.067

ANAPC7 (UniProt Q9UJX3)
inactive: [1] -0.001 | [2] 0.006 | [3] 0.002 | [4] 0.024 | [5] -0.016 | [6] 0.003 | [7] 0.027 | [8] 0 | [9] -0.017 | [10] 0.005

ALDH1L2 (UniProt Q3SY69)
inactive: [1] 0.005 | [2] 0.025 | [3] 0.011 | [4] 0.037 | [5] -0.02 | [6] -0.004 | [7] -0.064 | [8] -0.018 | [9] 0.024 | [10] -0.011

ANKRD40 (UniProt Q6AI12)
inactive: [1] 0.085 | [2] -0.269 | [3] 0.093 | [4] -0.143 | [5] 0.232 | [6] 0.065 | [7] -0.163 | [8] 0.296 | [9] 0.203 | [10] -0.091

ALKBH2 (UniProt Q6NS38)
inactive: [1] 0.025 | [2] -0.023 | [3] -0.031 | [4] -0.024 | [5] 0.008 | [6] -0.047 | [7] -0.073 | [8] 0.015 | [9] 0.04 | [10] -0.01

ANP32E (UniProt Q9BTT0)
inactive: [1] 0.006 | [2] -0.006 | [3] 0.016 | [4] -0.021 | [5] 0.012 | [6] -0.004 | [7] -0.065 | [8] -0.025 | [9] 0.011 | [10] 0.023

ALDH18A1 (UniProt P54886)
inactive: [1] 0.029 | [2] -0.039 | [3] -0.017 | [4] 0.02 | [5] -0.015 | [6] -0.016 | [7] -0.025 | [8] -0.022 | [9] 0.001 | [10] -0.006

ANK1 isoform 14 (UniProt P16157)
inactive: [1] 0.001 | [2] -0.002 | [3] -0.031 | [4] 0.028 | [5] 0.039 | [6] 0.026 | [7] -0.015 | [8] 0.002 | [9] 0.011 | [10] 0.01

ALG9 isoform 3 (UniProt Q9H6U8)
inactive: [1] 0.069 | [2] -0.086 | [3] 0 | [4] -0.013 | [5] -0.046 | [6] -0.023 | [7] 0.004 | [8] 0.023 | [9] -0.011 | [10] 0.087

ANTXR2 isoform 4 (UniProt P58335)
inactive: [1] -0.032 | [2] -0.032 | [3] 0.031 | [4] 0.01 | [5] 0.013 | [6] -0.036 | [7] 0.013 | [8] -0.007 | [9] 0.011 | [10] 0.012

AKT1 (UniProt P31749)
inactive: [1] -0.008 | [2] 0.042 | [3] -0.004 | [4] 0.121 | [5] 0.019 | [6] 0.059 | [7] 0.018 | [8] -0.034 | [9] 0.03 | [10] -0.005

ANKRD28 (UniProt O15084)
inactive: [1] 0.032 | [2] -0.022 | [3] -0.01 | [4] 0.007 | [5] 0.017 | [6] 0.014 | [7] -0.009 | [8] -0.026 | [9] -0.018 | [10] 0

ANKRD49 (UniProt Q8WVL7)
inactive: [1] 0.021 | [2] 0.03 | [3] 0.016 | [4] 0.033 | [5] 0.031 | [6] -0.028 | [7] 0.035 | [8] 0.024 | [9] -0.02 | [10] 0.003
